Structures can show the parent of a compound that is named as a salt. Some of the results follow. The calls rarely recur for the same compound in another form.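 Kinases, fused to nanoluciferase, were expressed in K562 cells; luminescence was measured every 4 h from 2 to 18 h as percent of control (DMSO = 100%, positive control = 0%). A time point is decreased if signal falls significantly (2 sigma). Hits were called by the authors by a rule that is not shown; the count of time points alone does not decide it.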

By UniProt entry, the sequences of proteins in these tests, tags left out. Where a name states a change or a piece, a line headed by the entry shows the natural chain unless it says otherwise.
UniProt Q15208: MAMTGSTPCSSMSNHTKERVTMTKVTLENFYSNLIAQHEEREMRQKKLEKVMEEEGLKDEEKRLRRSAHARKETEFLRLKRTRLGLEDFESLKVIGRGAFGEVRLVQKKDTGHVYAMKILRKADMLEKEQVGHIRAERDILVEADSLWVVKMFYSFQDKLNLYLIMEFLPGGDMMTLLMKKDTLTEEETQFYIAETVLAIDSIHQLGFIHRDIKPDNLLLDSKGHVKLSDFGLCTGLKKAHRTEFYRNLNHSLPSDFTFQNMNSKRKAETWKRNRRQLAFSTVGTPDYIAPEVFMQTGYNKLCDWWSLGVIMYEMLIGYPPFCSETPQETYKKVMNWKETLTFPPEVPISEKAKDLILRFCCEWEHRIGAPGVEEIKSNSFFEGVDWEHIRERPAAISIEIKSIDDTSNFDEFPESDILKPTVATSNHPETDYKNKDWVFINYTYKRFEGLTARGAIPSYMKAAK
UniProt P42680: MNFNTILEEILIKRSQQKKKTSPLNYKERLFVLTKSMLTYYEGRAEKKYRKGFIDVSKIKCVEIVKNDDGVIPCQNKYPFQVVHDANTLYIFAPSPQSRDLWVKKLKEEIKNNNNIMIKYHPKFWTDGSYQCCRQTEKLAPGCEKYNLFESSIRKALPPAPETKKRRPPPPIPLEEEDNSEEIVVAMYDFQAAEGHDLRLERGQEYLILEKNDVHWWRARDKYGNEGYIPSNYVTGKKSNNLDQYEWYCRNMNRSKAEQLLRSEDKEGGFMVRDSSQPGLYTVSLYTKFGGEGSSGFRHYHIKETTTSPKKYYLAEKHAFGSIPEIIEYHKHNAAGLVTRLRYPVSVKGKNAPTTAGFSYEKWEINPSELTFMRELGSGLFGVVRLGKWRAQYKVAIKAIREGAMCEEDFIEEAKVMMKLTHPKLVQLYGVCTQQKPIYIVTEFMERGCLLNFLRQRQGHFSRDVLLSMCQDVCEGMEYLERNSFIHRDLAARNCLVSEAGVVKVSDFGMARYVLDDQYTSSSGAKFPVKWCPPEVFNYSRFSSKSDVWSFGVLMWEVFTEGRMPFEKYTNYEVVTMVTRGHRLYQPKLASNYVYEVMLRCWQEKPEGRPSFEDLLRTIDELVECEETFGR
UniProt P29597: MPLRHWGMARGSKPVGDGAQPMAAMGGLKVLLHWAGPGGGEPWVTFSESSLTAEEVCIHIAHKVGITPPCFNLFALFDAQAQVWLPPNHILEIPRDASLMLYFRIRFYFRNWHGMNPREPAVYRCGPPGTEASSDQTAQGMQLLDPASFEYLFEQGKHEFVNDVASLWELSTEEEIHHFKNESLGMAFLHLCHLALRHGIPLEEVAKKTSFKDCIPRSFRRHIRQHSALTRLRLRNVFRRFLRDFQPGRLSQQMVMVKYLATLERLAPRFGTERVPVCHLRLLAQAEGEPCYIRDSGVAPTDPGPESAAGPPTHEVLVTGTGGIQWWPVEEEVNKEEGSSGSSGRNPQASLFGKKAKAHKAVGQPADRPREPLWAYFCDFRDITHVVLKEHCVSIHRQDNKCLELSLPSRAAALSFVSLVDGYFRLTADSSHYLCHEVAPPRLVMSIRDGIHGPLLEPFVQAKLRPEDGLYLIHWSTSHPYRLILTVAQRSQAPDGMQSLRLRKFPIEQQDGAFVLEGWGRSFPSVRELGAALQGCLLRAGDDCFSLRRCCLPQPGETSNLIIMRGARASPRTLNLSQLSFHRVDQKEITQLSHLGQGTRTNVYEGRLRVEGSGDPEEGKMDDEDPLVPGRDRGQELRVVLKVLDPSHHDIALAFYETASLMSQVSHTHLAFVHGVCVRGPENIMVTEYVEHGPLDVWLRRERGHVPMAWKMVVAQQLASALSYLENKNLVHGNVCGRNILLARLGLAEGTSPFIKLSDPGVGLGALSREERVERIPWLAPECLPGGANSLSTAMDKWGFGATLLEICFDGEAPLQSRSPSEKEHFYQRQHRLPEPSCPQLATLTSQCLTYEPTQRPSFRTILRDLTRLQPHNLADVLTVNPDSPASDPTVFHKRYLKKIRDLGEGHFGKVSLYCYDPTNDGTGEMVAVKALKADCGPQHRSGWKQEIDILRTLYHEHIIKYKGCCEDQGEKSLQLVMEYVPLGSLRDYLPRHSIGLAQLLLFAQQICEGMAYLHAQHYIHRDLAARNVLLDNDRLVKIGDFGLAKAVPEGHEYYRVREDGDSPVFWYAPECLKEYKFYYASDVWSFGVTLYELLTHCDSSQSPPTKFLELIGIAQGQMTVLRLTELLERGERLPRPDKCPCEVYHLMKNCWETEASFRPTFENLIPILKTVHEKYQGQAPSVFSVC
UniProt Q6PHR2: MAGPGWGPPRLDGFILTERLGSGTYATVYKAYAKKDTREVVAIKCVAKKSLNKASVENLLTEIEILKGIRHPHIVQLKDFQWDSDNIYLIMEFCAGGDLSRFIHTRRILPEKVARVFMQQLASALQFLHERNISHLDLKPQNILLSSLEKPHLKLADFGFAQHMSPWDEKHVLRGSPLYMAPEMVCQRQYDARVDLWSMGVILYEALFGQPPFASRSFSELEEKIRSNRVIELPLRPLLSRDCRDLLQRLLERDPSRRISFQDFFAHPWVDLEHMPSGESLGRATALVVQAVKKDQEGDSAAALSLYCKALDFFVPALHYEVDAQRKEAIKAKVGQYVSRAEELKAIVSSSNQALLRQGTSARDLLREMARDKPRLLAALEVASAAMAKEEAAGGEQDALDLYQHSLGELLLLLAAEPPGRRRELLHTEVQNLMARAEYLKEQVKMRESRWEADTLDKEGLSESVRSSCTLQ
UniProt P07947, whole entry, looked up: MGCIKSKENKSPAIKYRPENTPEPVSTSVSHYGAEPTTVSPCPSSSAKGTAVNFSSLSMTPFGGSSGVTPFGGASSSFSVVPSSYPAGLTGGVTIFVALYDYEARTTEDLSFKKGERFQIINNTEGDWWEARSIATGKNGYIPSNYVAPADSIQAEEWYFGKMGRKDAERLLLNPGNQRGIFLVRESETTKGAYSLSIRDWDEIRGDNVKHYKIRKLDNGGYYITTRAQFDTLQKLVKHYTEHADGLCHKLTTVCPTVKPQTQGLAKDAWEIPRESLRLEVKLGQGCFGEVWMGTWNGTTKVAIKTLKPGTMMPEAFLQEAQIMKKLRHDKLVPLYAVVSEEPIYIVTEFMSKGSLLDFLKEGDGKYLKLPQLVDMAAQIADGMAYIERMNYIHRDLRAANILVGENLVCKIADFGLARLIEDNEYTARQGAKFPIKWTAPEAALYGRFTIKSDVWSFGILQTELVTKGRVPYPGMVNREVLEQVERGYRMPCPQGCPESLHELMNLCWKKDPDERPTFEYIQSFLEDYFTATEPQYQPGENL
UniProt P43403: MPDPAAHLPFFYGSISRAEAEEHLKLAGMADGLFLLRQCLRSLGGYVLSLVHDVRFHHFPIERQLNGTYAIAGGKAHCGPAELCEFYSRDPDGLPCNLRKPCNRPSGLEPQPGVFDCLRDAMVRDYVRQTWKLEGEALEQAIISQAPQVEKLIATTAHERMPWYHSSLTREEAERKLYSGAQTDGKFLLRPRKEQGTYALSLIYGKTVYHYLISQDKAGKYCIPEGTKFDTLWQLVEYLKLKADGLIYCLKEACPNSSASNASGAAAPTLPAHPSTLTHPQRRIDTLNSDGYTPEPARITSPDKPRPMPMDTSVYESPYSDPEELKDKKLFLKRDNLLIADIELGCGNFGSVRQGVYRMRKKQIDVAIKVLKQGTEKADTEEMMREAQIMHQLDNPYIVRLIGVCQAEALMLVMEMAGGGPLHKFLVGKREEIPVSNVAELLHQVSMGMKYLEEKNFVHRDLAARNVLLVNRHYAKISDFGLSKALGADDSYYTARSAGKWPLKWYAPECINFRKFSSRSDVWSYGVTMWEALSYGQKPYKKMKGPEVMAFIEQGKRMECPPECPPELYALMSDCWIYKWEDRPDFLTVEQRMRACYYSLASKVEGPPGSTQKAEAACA
UniProt P00519, whole entry: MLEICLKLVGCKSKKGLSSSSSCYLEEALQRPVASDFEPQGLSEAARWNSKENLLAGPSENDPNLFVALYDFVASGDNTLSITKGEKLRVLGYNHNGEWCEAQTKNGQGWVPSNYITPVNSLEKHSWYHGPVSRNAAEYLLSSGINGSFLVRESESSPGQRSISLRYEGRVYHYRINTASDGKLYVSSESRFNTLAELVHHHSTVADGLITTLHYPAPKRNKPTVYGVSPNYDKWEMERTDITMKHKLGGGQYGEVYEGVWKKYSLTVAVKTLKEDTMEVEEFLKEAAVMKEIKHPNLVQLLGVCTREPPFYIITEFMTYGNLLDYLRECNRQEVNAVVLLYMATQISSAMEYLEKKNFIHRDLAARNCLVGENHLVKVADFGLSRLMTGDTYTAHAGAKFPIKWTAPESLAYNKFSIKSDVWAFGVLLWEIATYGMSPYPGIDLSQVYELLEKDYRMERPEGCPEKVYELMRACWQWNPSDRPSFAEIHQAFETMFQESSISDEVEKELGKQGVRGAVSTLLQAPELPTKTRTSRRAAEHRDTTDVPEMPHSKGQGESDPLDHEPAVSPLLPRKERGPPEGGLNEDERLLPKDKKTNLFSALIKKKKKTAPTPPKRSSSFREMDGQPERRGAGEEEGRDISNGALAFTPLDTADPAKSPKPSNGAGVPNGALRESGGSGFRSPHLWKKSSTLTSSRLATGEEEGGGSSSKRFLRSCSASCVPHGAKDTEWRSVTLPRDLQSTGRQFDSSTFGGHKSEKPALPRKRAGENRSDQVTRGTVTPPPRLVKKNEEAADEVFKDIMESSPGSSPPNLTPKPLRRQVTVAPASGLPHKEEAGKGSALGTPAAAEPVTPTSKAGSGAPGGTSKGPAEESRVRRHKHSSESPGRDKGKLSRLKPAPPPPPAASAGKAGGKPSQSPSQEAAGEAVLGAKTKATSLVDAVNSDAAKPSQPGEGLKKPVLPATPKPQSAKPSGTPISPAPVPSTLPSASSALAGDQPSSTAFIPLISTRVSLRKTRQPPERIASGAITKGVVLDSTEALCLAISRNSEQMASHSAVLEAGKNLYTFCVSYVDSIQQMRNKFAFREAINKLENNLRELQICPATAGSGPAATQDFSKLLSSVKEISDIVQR
UniProt P31749: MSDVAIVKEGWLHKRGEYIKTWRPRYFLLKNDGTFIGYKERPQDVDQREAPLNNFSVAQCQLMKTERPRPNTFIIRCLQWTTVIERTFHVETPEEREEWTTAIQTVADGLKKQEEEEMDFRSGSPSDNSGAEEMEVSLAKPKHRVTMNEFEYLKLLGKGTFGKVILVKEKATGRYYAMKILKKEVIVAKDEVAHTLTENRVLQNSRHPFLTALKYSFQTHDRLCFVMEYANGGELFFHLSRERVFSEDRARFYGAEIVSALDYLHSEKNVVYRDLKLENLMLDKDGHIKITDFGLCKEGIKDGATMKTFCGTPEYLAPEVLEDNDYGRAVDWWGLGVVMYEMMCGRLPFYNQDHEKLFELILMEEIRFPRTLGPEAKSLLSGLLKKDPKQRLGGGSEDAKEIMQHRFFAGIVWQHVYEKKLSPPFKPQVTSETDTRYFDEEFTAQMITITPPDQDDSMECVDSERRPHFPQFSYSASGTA

Here are results for 15 molecules from the supplement of paper PMC12823440, “Inhibitors supercharge kinase turnover through native proteolytic circuits” (Nature, 2025).

Holding throughout (conditions): K562; 2-18 h
One assay deals with STK38 (UniProt Q15208). Put plainly: kinase-Nluc reporter destabilization hit call (1 = scored as downregulated) (binary); higher = compound decreases kinase abundance.
Another assay deals with SYK (UniProt P43405). The assay is described as above.
The next assay addresses TEC (UniProt P42680). Described as above.
The next assay addresses TYK2 (UniProt P29597). Described as above.
The next assay concerns the target ULK3 (UniProt Q6PHR2). The description is as above.
In another assay the target is YES1 (UniProt P07947). The assay is described as above.
For the next assay, the target named is ZAK (UniProt Q9NYL2). The assay is described as above.
The target of another assay is ZAP70 (UniProt P43403). The description is as above.
A further assay addresses ABL1 (UniProt P00519). In words: number of time points (of 5) at which kinase-Nluc abundance scored as decreased, DMSO-normalised (count); higher = more persistent destabilization.
In a further assay the target is AKT1 (UniProt P31749). The description is as above.

Turning to `Cc1cc(NC(=O)c2cccc(NC(=O)/C=C/CN(C)C)c2)ccc1Nc1nccc(-c2cccnc2)n1` (10 µM), the “kinase-Nluc reporter destabilization hit call” value with STK38, with SYK, with TEC, with TYK2, with ULK3 and in the assay with YES1 was inactive: 0 each time. For the same molecule, the “kinase-Nluc reporter destabilization hit call” value with ZAK and with ZAP70 was inactive: 0 each time. Besides, the “number of time points” value turned out to be 3 in the assay with ABL1 and 0 in the assay with AKT1.

Turning to `C[C@@H](c1ccc2nccn2c1)n1nnc2ncc(-c3cnn(C)c3)nc21` [Savolitinib] (10 µM), the “kinase-Nluc reporter destabilization hit call” value in the assay with STK38, in the assay with SYK, in the assay with TEC, with TYK2, with ULK3 and in the assay with YES1 was inactive: 0 throughout. Further, the “kinase-Nluc reporter destabilization hit call” value with ZAK and with ZAP70 was inactive: 0 in each case. Also, the “number of time points” value in the assay with ABL1 and with AKT1 was 0 throughout.

As for `COc1cc([N+](=O)[O-])ccc1S(=O)(=O)N1C[C@@H](CN2CCN(c3ccccn3)CC2)[C@H](c2cccc(F)c2)C1` (relative stereo) (10 µM), the “kinase-Nluc reporter destabilization hit call” value with STK38, in the assay with SYK, in the assay with TEC, with TYK2, in the assay with ULK3 and in the assay with YES1 was inactive: 0 in each case. Further, the “kinase-Nluc reporter destabilization hit call” value with ZAK and with ZAP70 was inactive: 0 throughout. Besides, the “number of time points” value in the assay with ABL1 and with AKT1 was 0 each time.

In the case of `Cc1cc(Nc2cc3ncccc3c(N[C@@H]3C[C@H]4CC[C@@H](C3)N4CCC#N)n2)n[nH]1` [Izencitinib] (10 µM), the “kinase-Nluc reporter destabilization hit call” value with STK38, with SYK, with TEC, with TYK2, with ULK3 and with YES1 was inactive: 0 throughout. In addition, the “kinase-Nluc reporter destabilization hit call” value with ZAK and with ZAP70 was inactive: 0 throughout. Also, the “number of time points” value with ABL1 and in the assay with AKT1 was 0 throughout.

In the case of `CC(C)CN(CC(=O)N1CCN(CC(OCc2ccc3ccccc3c2)c2ccc(Cl)cc2Cl)CC1)CC(C)C` (stereo not given) [LYN-1604 (dihydrochloride)] (2.5 µM), the “kinase-Nluc reporter destabilization hit call” value with STK38, with SYK, with TEC, in the assay with TYK2, in the assay with ULK3 and in the assay with YES1 was inactive: 0 in each case. For the same molecule, the “kinase-Nluc reporter destabilization hit call” value with ZAK and with ZAP70 was inactive: 0 each time. In addition, the “number of time points” value with ABL1 and with AKT1 was 0 in each case.

With `O=C(NCCCNc1nc(Nc2cccc(NC(=O)N3CCCC3)c2)ncc1I)c1cccs1` (2.5 µM), the “kinase-Nluc reporter destabilization hit call” value in the assay with STK38, with SYK, with TEC, in the assay with TYK2, in the assay with ULK3 and with YES1 was inactive: 0 throughout. Moreover, the “kinase-Nluc reporter destabilization hit call” value in the assay with ZAK and in the assay with ZAP70 was inactive: 0 throughout. For the same molecule, the “number of time points” value in the assay with ABL1 and in the assay with AKT1 was 0 in each case.

As to `Cc1noc(C)c1-c1ccc(-c2cc(C(N)=O)c(NC(N)=O)s2)c(O[C@H]2CCNC2)c1` (10 µM), the “kinase-Nluc reporter destabilization hit call” value in the assay with STK38, with SYK, with TEC, in the assay with TYK2, in the assay with ULK3 and with YES1 was inactive: 0 in each case. The “kinase-Nluc reporter destabilization hit call” value with ZAK and with ZAP70 was inactive: 0 throughout. The “number of time points” value in the assay with ABL1 and in the assay with AKT1 was 0 in each case.

For `CNC(=O)Nc1ccc(-c2cc(-c3ccnc(Nc4ccc(C)c(S(=O)(=O)N(C)C)c4)n3)ccn2)cc1` [hSMG-1 inhibitor 11e] (2.5 µM), the “kinase-Nluc reporter destabilization hit call” value in the assay with STK38, with SYK, with TEC, with TYK2, in the assay with ULK3 and with YES1 was inactive: 0 each time. In addition, the “kinase-Nluc reporter destabilization hit call” value with ZAK and in the assay with ZAP70 was inactive: 0 in each case. The “number of time points” value in the assay with ABL1 worked out at 4; in the assay with AKT1 it was 0.

Consider `C=C(CCC=C(C)C)[C@H]1CC[C@]2(C)[C@@H]1[C@H](O)C[C@@H]1[C@@]3(C)CC[C@H](O[C@@H]4O[C@H](CO)[C@@H](O)[C@H](O)[C@H]4O[C@@H]4O[C@H](CO)[C@@H](O)[C@H](O)[C@H]4O)C(C)(C)[C@@H]3CC[C@]12C` [Ginsenoside Rk1] (10 µM), for which the “kinase-Nluc reporter destabilization hit call” value with STK38, with SYK, with TEC, with TYK2, with ULK3 and in the assay with YES1 was inactive: 0 throughout. The “kinase-Nluc reporter destabilization hit call” value in the assay with ZAK and in the assay with ZAP70 was inactive: 0 each time. Besides, the “number of time points” value with ABL1 and with AKT1 was 0 throughout.

With `COc1c(NC(=O)C(=O)c2ccc(OCCN3CCOCC3)c3ccccc23)cc(C(C)(C)C)cc1NS(C)(=O)=O` (2.5 µM), the “kinase-Nluc reporter destabilization hit call” value in the assay with STK38, with SYK, with TEC, with TYK2, with ULK3 and with YES1 was inactive: 0 throughout. Moreover, the “kinase-Nluc reporter destabilization hit call” value with ZAK and with ZAP70 was inactive: 0 throughout. In addition, the “number of time points” value with ABL1 and in the assay with AKT1 was 0 in each case.

`O=C(NC(NC(=S)Nc1ccc(F)c([N+](=O)[O-])c1)C(Cl)(Cl)Cl)C(c1ccccc1)c1ccccc1` (stereo not given) (10 µM): the “kinase-Nluc reporter destabilization hit call” value in the assay with STK38, in the assay with SYK, with TEC, in the assay with TYK2, with ULK3 and with YES1 was inactive: 0 in each case. Besides, the “kinase-Nluc reporter destabilization hit call” value in the assay with ZAK and in the assay with ZAP70 was inactive: 0 throughout. Further, the “number of time points” value in the assay with ABL1 and with AKT1 was 0 throughout.

Regarding `c1cn2cc(-c3ccc4cn[nH]c4c3)nc(Nc3ccc(N4CCOCC4)cc3)c2n1` [Entospletinib] (10 µM), the “kinase-Nluc reporter destabilization hit call” value with STK38, with SYK, in the assay with TEC, with TYK2, with ULK3 and with YES1 was inactive: 0 each time. Further, the “kinase-Nluc reporter destabilization hit call” value with ZAK and with ZAP70 was inactive: 0 in each case. The “number of time points” value with ABL1 and with AKT1 was 0 each time.

Consider `CN1CCN(c2ccc(Nc3ncc4nc(Nc5ccccc5)n([C@@H]5CCN(S(=O)(=O)C6CC6)C5)c4n3)cc2)CC1` (2.5 µM), for which the “kinase-Nluc reporter destabilization hit call” value in the assay with STK38, in the assay with SYK, in the assay with TEC, in the assay with TYK2, with ULK3 and in the assay with YES1 was inactive: 0 in each case. For the same molecule, the “kinase-Nluc reporter destabilization hit call” value with ZAK and with ZAP70 was inactive: 0 throughout. Also, the entries for the “number of time points” value with ABL1 and in the assay with AKT1 were 3 and 0, respectively.

In the case of `Cc1cc(-c2cc(OC(=O)c3ccccc3)ccc2Cl)cc2nnc(Nc3ccc(OCCN4CCCC4)cc3)nc12` (0.5 µM), the “kinase-Nluc reporter destabilization hit call” value with STK38, with SYK, with TEC, in the assay with TYK2, in the assay with ULK3 and in the assay with YES1 was inactive: 0 each time. Besides, the “kinase-Nluc reporter destabilization hit call” value with ZAK and with ZAP70 was inactive: 0 throughout. Moreover, the “number of time points” value with ABL1 and with AKT1 was 0 throughout.

For `Cc1ccc(S(=O)(=O)Nc2ccccc2C=Nc2ccccc2NS(=O)(=O)c2ccc(C)cc2)cc1` (10 µM), the “kinase-Nluc reporter destabilization hit call” value with STK38, with SYK, with TEC, with TYK2, in the assay with ULK3 and with YES1 was inactive: 0 throughout. Further, the “kinase-Nluc reporter destabilization hit call” value with ZAK and with ZAP70 was inactive: 0 throughout. In addition, the “number of time points” value with ABL1 and in the assay with AKT1 was 0 throughout.
